From US20240190992A1 (UNIVERSITY PUBLIC CORPORATION OSAKA, published 2024)
Changes are numbered by the printed parent chain. Results are given in words; binding and its absence hold for the method and conditions named. Some binding calls cover weakened binding; strength is not graded here.

Amino acid sequences for entries named in this document (tags omitted). Residues count along the entry.
UniProt P31946, residues 2-246: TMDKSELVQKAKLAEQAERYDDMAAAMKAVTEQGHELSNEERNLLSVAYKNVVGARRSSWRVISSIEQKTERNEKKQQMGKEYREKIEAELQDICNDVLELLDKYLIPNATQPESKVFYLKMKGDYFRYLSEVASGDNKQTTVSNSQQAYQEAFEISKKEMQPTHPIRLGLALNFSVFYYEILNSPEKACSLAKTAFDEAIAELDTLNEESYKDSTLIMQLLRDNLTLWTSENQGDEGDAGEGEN

B1: 1B4G4 (antibody I) (antibody, IgG2b, V domains shown)
VH: QVQLKESGPGLVQPSQTLSLTCTVSGFSLSSYGVIWVRQPPGKGLEWMGLIWDNGNTNYNSALKSRLSISRDTSKSQVFLKMNNLQTEDTAMYFCARSRHYFDYWGQGVMVTVSS
VL: DIQMTQSPSLLSASVGDRVTLNCKASQNIYKILAWYQQKLGEAPKLLIYNADSLQTGIPSRFSGSGSGTDFTLTISSLQPEDVATYFCQQYYSGWTFGGGTKLELK
B2: 1E7G5 (antibody I) (antibody, IgG2b, V domains shown)
VH: B1 VH with N56D, N60C, A62P
VL: B1 VL with I32N, L46F, D52N

Assays:
[1] = target: 14-3-3 protein beta/alpha (UniProt P31946); experiment: antibody affinity column on KMC07 whole cell extract, silver staining, mass analysis of the eluted band; filing considers it non-specific
[2] = target: 14-3-3 protein beta/alpha (UniProt P31946); experiment: antibody affinity column on KMC07 whole cell extract, mass analysis

Binder | binding [1] | binding [2]
B1 | binds | binds
B2 | binds | binds
